For one substance, binding results are on record in PMC9039659.

Amino acid sequences for entries named in this document (tags omitted).
UniProt P35222: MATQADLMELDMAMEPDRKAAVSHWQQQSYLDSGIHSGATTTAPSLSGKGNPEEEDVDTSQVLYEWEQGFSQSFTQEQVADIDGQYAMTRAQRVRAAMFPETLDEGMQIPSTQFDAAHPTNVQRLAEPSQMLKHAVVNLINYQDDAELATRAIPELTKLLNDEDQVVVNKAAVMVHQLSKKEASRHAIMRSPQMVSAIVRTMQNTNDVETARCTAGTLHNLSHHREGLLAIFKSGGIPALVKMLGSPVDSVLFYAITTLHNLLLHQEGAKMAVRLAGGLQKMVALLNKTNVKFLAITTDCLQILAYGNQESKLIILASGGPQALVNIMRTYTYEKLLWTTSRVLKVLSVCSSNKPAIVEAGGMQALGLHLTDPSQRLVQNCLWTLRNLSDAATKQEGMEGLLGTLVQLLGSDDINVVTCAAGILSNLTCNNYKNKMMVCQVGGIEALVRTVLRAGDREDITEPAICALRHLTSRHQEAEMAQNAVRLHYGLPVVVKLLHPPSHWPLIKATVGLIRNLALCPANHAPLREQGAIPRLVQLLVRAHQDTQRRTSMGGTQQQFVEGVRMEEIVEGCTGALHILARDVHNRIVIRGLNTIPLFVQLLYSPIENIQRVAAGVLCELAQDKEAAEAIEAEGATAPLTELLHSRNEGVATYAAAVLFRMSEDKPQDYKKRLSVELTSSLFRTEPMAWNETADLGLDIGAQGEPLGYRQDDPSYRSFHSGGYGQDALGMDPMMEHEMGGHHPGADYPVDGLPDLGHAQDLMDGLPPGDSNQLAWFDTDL
UniProt P49841: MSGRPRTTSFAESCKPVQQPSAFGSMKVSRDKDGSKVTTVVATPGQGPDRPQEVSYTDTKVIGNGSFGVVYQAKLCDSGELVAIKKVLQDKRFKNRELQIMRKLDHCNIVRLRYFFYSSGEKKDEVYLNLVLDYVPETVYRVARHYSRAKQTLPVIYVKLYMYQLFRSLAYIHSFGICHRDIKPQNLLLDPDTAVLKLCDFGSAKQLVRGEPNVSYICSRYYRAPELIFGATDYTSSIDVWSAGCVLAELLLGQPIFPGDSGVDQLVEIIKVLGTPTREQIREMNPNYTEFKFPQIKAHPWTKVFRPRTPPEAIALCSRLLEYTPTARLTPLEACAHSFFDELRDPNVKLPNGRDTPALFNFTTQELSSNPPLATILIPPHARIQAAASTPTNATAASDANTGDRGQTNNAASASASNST
UniProt O95863: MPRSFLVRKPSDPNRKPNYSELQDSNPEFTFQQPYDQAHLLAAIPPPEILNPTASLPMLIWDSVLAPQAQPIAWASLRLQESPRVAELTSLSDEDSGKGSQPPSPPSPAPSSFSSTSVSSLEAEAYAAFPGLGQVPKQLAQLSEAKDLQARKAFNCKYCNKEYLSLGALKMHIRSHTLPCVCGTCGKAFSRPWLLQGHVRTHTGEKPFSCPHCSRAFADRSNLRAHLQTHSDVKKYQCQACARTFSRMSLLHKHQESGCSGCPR

Test [1] has as its target β-catenin (human (endogenous in HUVEC)) (UniProt P35222). Put plainly: co-IP; endogenous proteins in NP-40 lysate of HUVECs, with or without WNT10A treatment of the cells; immunoprecipitated with antibody against β-catenin, protein A/G agarose beads, 4°C; immunoblot; IgG as negative control. (A western blot detects proteins with antibodies after separation by electrophoresis.)

The target of test [2] is glycogen synthase kinase 3β (human (endogenous in HUVEC)) (UniProt P49841). The experiment in a line: co-IP; endogenous proteins in NP-40 lysate of HUVECs, with or without WNT10A treatment of the cells; immunoprecipitated with antibody against GSK3β, protein A/G agarose beads, 4°C; immunoblot; IgG as negative control.

Results are given in words; binding and its absence hold for the method and conditions named. Binding seen in cells or lysates may run through a third protein. Some results given as binding are weak or reduced against the parent protein; the word gives no strength.

Regarding snail (from UniProt O95863 1-264), the binding result in test [1] and in test [2] was “binds” each time.
